This passage reports binding results from paper PMC3056803.

Amino acid sequences for entries named in this document (tags omitted).
UniProt P17676: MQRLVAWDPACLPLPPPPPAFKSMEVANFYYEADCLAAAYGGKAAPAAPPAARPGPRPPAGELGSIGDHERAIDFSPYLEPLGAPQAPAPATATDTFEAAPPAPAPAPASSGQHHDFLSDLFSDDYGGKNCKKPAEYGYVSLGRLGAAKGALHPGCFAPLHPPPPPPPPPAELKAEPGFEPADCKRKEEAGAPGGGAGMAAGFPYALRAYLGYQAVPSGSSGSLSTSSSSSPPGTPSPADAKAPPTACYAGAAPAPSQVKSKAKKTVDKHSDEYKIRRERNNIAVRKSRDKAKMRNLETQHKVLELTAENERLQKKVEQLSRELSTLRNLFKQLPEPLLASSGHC
UniProt P49715: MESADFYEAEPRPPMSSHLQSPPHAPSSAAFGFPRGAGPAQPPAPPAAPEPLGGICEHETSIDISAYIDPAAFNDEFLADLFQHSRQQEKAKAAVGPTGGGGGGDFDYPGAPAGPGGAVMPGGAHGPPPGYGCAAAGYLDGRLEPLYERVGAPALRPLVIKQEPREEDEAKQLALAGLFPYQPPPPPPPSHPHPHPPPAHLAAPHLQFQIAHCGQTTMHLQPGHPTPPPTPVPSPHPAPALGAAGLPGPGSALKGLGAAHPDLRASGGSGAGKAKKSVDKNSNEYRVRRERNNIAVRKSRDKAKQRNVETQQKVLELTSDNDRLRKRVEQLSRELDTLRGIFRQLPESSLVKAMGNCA

These are yes or no findings as the source states them, for the method shown. Some binding calls cover weakened binding; strength is not graded here.

For one assay, the target named is C/EBPβ (UniProt P17676). Kind of assay: native gel or EMSA; whole cell extracts of HEK293 cells overexpressing C/EBPα and C/EBPβ incubated with 32P-labelled CCAAT box1 oligonucleotide of the MAD1 promoter, 30°C 30 min; supershift with C/EBPα- or C/EBPβ-specific antibody; the heterodimer is seen on DNA.
Assay [1] deals with C/EBPβ (endogenous, U937) (human (endogenous in U937)) (UniProt P17676). Kind of assay: re-ChIP (sequential chromatin immunoprecipitation); U937 cells with or without 2.5 ng/ml TGFβ1 for 1.5 hrs, cross-linked; first immunoprecipitation with C/EBPβ antibody, release in 1% SDS, 10 mM DTT, second immunoprecipitation with C/EBPα or C/EBPβ antibody; quantitative PCR of the MAD1 promoter (primer set P).

Turning to C/EBPα (from UniProt P49715 1-358), the binding entry in the assay with C/EBPβ is on record as “binds”. As to “C/EBPα (endogenous, U937) (from UniProt P49715 1-358)”, the binding entry in assay [1] was “binds”.
